Data as given in PubChem BioAssay AID1224830 (NIAID, 2016)
Shown is one part, drawn at random, of about 18,000 deposited reagents. Over the whole deposit, about 2,900 (16%) are marked active. 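Calls are made per well; low scores hint the gene aids the LPS response, high scores that it dampens it.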 Reagents against one gene are numbered here. Repeated entries: four replicate wells of each siRNA pool.

Screen: 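Regulators of TLR4 signalling towards TNF-alpha in macrophage-like cells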 (primary screen)
Cell system: human THP-1 monocytic leukaemia cells, TNF dual-luciferase reporter clone, PMA-differentiated to macrophage-like cells
Reagents: siRNA pool against human genes, 50 nM
Timing: LPS for 4 h, given about 3 days after siRNA transfection
Conditions: bacterial LPS (TLR4 ligand), 10 ng/ml
Read-out: 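TNF firefly reporter luminescence divided by renilla, normalised to the plate median, then turned into a robust z-score for each replicate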
Reading the numbers: TNF reporter robust z-score: higher = stronger TNF reporter response to LPS
Rule for the call: 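a well is active when its z-score exceeds 2.8 or falls below -1.5; control wells carry no call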

gene symbol | reagent no. | TNF reporter robust z-score | Call
KPNA2 | 1 | 0.29 | inactive
KPNA2 | 1 | 1.05 | inactive
KPNA2 | 1 | 1.12 | inactive
KPNA2 | 1 | 1.26 | inactive
MBD1 | 1 | 0.42 | inactive
MBD1 | 1 | 2.83 | active
MBD1 | 1 | -0.61 | inactive
MBD1 | 1 | -0.06 | inactive
MAK | 1 | 1.55 | inactive
MAK | 1 | 2.85 | active
MAK | 1 | 0.69 | inactive
MAK | 1 | 3.5 | active
PHF1 | 1 | -0.46 | inactive
PHF1 | 1 | 0.92 | inactive
PHF1 | 1 | -0.63 | inactive
PHF1 | 1 | -0.02 | inactive
FAH | 1 | -0.76 | inactive
FAH | 1 | 0.54 | inactive
FAH | 1 | -1.19 | inactive
FAH | 1 | -0.41 | inactive
TMEM91 | 1 | -0.28 | inactive
TMEM91 | 1 | 1.17 | inactive
TMEM91 | 1 | 0.14 | inactive
TMEM91 | 1 | 1.01 | inactive
SPANXC | 1 | 1.03 | inactive
SPANXC | 1 | 2.55 | inactive
SPANXC | 1 | 1.14 | inactive
SPANXC | 1 | 1.89 | inactive
TAF2 | 1 | -0.41 | inactive
TAF2 | 1 | -0.45 | inactive
TAF2 | 1 | -0.26 | inactive
TAF2 | 1 | -0.21 | inactive
OCRL | 1 | -1.02 | inactive
OCRL | 1 | -0.01 | inactive
OCRL | 1 | -1.45 | inactive
OCRL | 1 | 0.74 | inactive
LRRC36 | 1 | 0.9 | inactive
LRRC36 | 1 | 0.8 | inactive
LRRC36 | 1 | 2.16 | inactive
JPT1 | 1 | -1.42 | inactive
JPT1 | 1 | -0.2 | inactive
JPT1 | 1 | -0.15 | inactive
JPT1 | 1 | 0 | inactive
CUZD1 | 1 | 0.84 | inactive
CUZD1 | 1 | -0.35 | inactive
CUZD1 | 1 | -1.18 | inactive
CUZD1 | 1 | -1.19 | inactive
MOSPD1 | 1 | 1.75 | inactive
MOSPD1 | 1 | 0.51 | inactive
MOSPD1 | 1 | 1.27 | inactive
MOSPD1 | 1 | 1.41 | inactive
THPO | 1 | -1.36 | inactive
THPO | 1 | -1.57 | active
THPO | 1 | -1.58 | active
THPO | 1 | -1.1 | inactive
PMEPA1 | 1 | -0.35 | inactive
PMEPA1 | 1 | 0.29 | inactive
PMEPA1 | 1 | 0.19 | inactive
PMEPA1 | 1 | -1.09 | inactive
RNF186 | 1 | -0.73 | inactive
RNF186 | 1 | 0.09 | inactive
RNF186 | 1 | -0.01 | inactive
RNF186 | 1 | 0.38 | inactive
C1orf159 | 1 | 1.05 | inactive
C1orf159 | 1 | -0.12 | inactive
C1orf159 | 1 | -0.02 | inactive
C1orf159 | 1 | 0.37 | inactive
KCNS2 | 1 | -1.07 | inactive
KCNS2 | 1 | -0.8 | inactive
KCNS2 | 1 | -0.13 | inactive
KCNS2 | 1 | 0.65 | inactive
OR7A17 | 1 | 0 | inactive
OR7A17 | 1 | 1.09 | inactive
OR7A17 | 1 | 0.48 | inactive
OR7A17 | 1 | 1.05 | inactive
FNDC3B | 1 | 0.77 | inactive
FNDC3B | 1 | 0.33 | inactive
FNDC3B | 1 | 0.14 | inactive
FNDC3B | 1 | 0.28 | inactive
PDZRN4 | 1 | 4.14 | active
PDZRN4 | 1 | 1.21 | inactive
PDZRN4 | 1 | 3.19 | active
PDZRN4 | 1 | 1.09 | inactive
TMEM165 | 1 | -0.1 | inactive
TMEM165 | 1 | -0.21 | inactive
TMEM165 | 1 | -0.08 | inactive
TMEM165 | 1 | -0.5 | inactive
RPL27A | 1 | -1.12 | inactive
RPL27A | 1 | -0.63 | inactive
RPL27A | 1 | -0.42 | inactive
RPL27A | 1 | -0.05 | inactive
PLEKHG7 | 1 | 1.9 | inactive
PLEKHG7 | 1 | -0.46 | inactive
PLEKHG7 | 1 | -1.46 | inactive
PLEKHG7 | 1 | -0.61 | inactive
PLEKHG7 | 2 | -0.77 | inactive
PLEKHG7 | 2 | -0.87 | inactive
PLEKHG7 | 2 | -1.02 | inactive
PLEKHG7 | 2 | -0.57 | inactive
GRPEL1 | 1 | -0.04 | inactive
GRPEL1 | 1 | 0.39 | inactive
GRPEL1 | 1 | -0.26 | inactive
GRPEL1 | 1 | -0.22 | inactive
UBE2O | 1 | -0.61 | inactive
UBE2O | 1 | -0.06 | inactive
UBE2O | 1 | 0.17 | inactive
UBE2O | 1 | 2.81 | active
MEP1B | 1 | 0.4 | inactive
MEP1B | 1 | 0.88 | inactive
MEP1B | 1 | -0.83 | inactive
MEP1B | 1 | 0.48 | inactive

Reagents listed so far called active (8):
gene symbol | reagent no. | TNF reporter robust z-score | Call
MBD1 | 1 | 2.83 | active
MAK | 1 | 2.85 | active
MAK | 1 | 3.5 | active
THPO | 1 | -1.57 | active
THPO | 1 | -1.58 | active
PDZRN4 | 1 | 4.14 | active
PDZRN4 | 1 | 3.19 | active
UBE2O | 1 | 2.81 | active
